The results in this text go back to PubChem BioAssay (NCATS).

Values joined by “and” are separate entries in the source; they are usually repeats but may differ in a detail not shown here. Equal values may be shown once. This is one part of the list. Further columns of the screen follow, without active or inactive calls. Compounds called inactive in the main read-out are mostly missing here. Potencies come from curve fits of mixed quality, noted in brackets.

Assay [1] can be described thus: Validation of Assay for Modulators of Lamin A Splicing (AID 1459). The following applies: Lamin A splicing dual RFP/GFP fluorescence reporter, ratio. A digest of the protocol: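 Dual-reporter HeLa S3 line (lamin A-EGFP minigene, DsRed2) treated with compounds 48 hrs, 0.5% DMSO final. Endpoint: EGFP/DsRed2 total intensity ratio from laser-scanning microplate cytometry.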

Assay [2] is described as follows: qHTS Assay for Lipid Storage Modulators (AID 1519). The following applies: Drosophila S3 cells, BODIPY lipid droplet/cell ratio, laser cytometry, cells loaded with oleic acid. A digest of the protocol: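 Cells seeded at 5,000 per well were treated with compounds over a concentration series and loaded with oleic acid (400 uM, as added). Lipid droplet fluorescence (488 nm excitation, 500-530 nm channel) was read by laser-scanning cytometry and normalized to 20 uM Triacsin C.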

A short description of assay [3]: qHTS Assay for Modulators of Human Peripheral Myelin Protein 22 (PMP22) Expression/Activity (AID 1967). The following applies: Cell-based PMP22 reporter, dual-color luciferase ratio. A digest of the protocol:
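Engineered MSC80 cells, Pmp22-promoter green and EF-alpha red luciferase reporters; 24h compound treatment at 37 °C. Concentration-response fits on green, red and ratio signals, each overlap-corrected, with %Activity normalized to untreated wells.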

Assay [4] can be described thus: Nrf2 qHTS screen for inhibitors: Validation (AID 493153). The following applies: A549 ARE-Fluc reporter, 18-24 h; AC50: CellTiter-Fluor fluorescence read, measured here: cytotoxicity CellTiter-Fluor AC50; viability change: measured here: cytotoxicity max response. In outline: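 Concentration-response test in A549 ARE_Fluc reporter cells (5% FBS OPTI-MEM), compound exposure 18-24 h at 37°C, 5% CO2. Cell viability measured first by CellTiter-Fluor fluorescence; ARE-driven luciferase luminescence then measured as Nrf2 activity.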
(In general: In qHTS, concentration-response curves come from the screen itself.)

A short description of assay [5]: qHTS Assay for Inhibitors of PDE-IV (AID 607). The following applies: HEK293 ACTOne CNG channel cells, membrane potential fluorescence; measured here: parental cell counter-screen. A digest of the protocol: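 ACTOne HEK293 cells carry a modified cAMP-gated CNG channel and express endogenous PDE4; plated 1000 cells/well, compounds up to 22.9 uM final. Membrane-potential dye fluorescence (ex 535/em 590) was read; parental cells received 10 uM forskolin + 100 uM RO 20-1724.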

The nature of assay [6]: qHTS Validation Assay to Find Inhibitors of Chronic Active B-Cell Receptor Signaling (AID 485345). The following applies: ABC-DLBCL cells, chronic BCR signaling reporter. A digest of the protocol:
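TMD8 ABC-DLBCL cells stably carrying doxycycline-inducible IkappaBalpha–green luciferase fusion plus unfused red luciferase; compounds 46 uM to 3 nM, 4 h at 37C with doxycycline. Corrected green/red luminescence ratio normalized to 10 uM MG-132 and basal cell wells; curves fitted.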

Assay [7] in a line: qHTS for identification of novel therapeutic agents for treatment of microphthalmiaassociated transcription factor (MiT) renal cell carcinoma (RCC) (AID 1963991). The following applies: CellTiter-Glo, 48 h; for z-score: stronger effect = lower value. A digest of the protocol: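 Three TFE3-fusion RCC cell lines (UOK109, UOK124, UOK145), 500 cells/well, were exposed to the 1912-compound MIPE 4.0 library for 48 hours at 37 C. Viability was read by CellTiter-Glo luminescence, normalised to DMSO (100%) and empty wells (0%), with 11-concentration curve fits.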

Setting [8] is: measured here: cell count channel max response.
[9] abbreviates: measured here: cell number channel AC50.
Where [10] appears, read: measured here: lipid (BODIPY) channel AC50.
[11] abbreviates: measured here: lipid channel max response.
Where [12] appears, read: measured here: green reporter channel AC50, mouse Pmp22 promoter in mouse Schwann cells.
The mark [13] stands for this setting: measured here: red reporter channel AC50, EF-alpha promoter control reporter in MSC80 mouse Schwann cells.
Where [14] appears, read: measured here: CBG/CBR ratio read-out.
Setting [15] is: measured here: CBR control luciferase (viability counter).

In the case of `[N-]=[N+]=Nc1ccc(C(=O)CSC[C@H](NC(=O)CC[C@H](N)C(=O)O)C(=O)NCC(=O)O)cc1`, the concentration at half-maximal activity (AC50) in assay [1] (measured here: GFP channel) is 0.794 µM [rising, full curve]; in assay [1] (measured here: RFP channel), 0.794 µM [rising, full curve]; in assay [2] (setting [9]), 1.41 µM [falling, full curve, poor fit]; in assay [2] (setting [10]), 1.41 µM [falling, full curve, poor fit]; in assay [3] (setting [12]) it was 67.5 µM [falling, partial curve]; in assay [3] (setting [13]), 21.3 µM [falling, partial curve, poor fit]. Further, the max response in assay [2] (setting [8]) was -35.1%; in assay [2] (setting [11]) it was -33.8%. Besides, the viability change in assay [4] turned out to be 3.1%.
For the compound `O=Nc1c(-c2c(O)[nH]c3ccccc23)[nH]c2ccccc12`, the AC50 in assay [5] was 10 µM [falling, partial curve, poor fit] and 10 µM [falling, partial curve]; in assay [1] (measured here: GFP channel), 10 µM [rising, partial curve]; in assay [1] (measured here: RFP channel), 10 µM [rising, partial curve]; in assay [2] (setting [9]), 20 µM [falling, partial curve, poor fit] and 22.4 µM [falling, partial curve, poor fit]; in assay [2] (setting [10]) it was 22.4 µM [falling, full curve, poor fit]; in assay [3] (setting [12]) it was 47.8 µM [falling, partial curve]. Besides, the AC50 in assay [3] (setting [13]) is 37.9 µM [falling, partial curve, poor fit]; in assay [6] (setting [14]) it was 4.11 µM [falling, single point]; in assay [6] (setting [15]) it was 18.4 µM [falling, single point]; in assay [4], 23.1 µM [falling, single point]. For the same compound, the max response in assay [2] (setting [8]) was -90.1% and -77.3%; in assay [2] (setting [11]), -101% and -89.6%. In assay [4], the viability change is -46%.
As to `C[N+](C)(C)CCC(=O)c1cccc2ccccc12`, the AC50 is 22.4 µM [falling, partial curve] in assay [1] (measured here: GFP channel); 1.12 µM [falling, full curve] in assay [1] (measured here: RFP channel); 10 µM [falling, full curve] in assay [2] (setting [9]); 8.91 µM [falling, full curve] in assay [2] (setting [10]); 26.9 µM [falling, full curve] in assay [3] (setting [12]); 33.8 µM [falling, full curve] in assay [3] (setting [13]). Also, the max response in assay [2] (setting [8]) is -67.6%; in assay [2] (setting [11]), -77.9%.
`CNC(=O)[C@H]1O[C@@H](n2cnc3c(NCc4ccc(I)cc4)nc(Cl)nc32)[C@H](O)[C@@H]1O`: the AC50 in assay [1] (measured here: GFP channel) was 12.6 µM [falling, partial curve]; in assay [1] (measured here: RFP channel), 12.6 µM [falling, partial curve]; in assay [2] (setting [10]), 11.2 µM [falling, partial curve, poor fit]; in assay [3] (setting [12]), 53.6 µM [falling, partial curve]; in assay [3] (setting [13]), 37.9 µM [falling, partial curve]; in assay [6] (setting [14]) it was 6.51 µM [falling, partial curve]. The half-maximal activity concentration (AC50) in assay [6] (setting [15]) was 0.461 µM [rising, full curve]. In addition, the max response was -68.3% in assay [2] (setting [8]) and -70.3% in assay [2] (setting [11]). Besides, in assay [4], the viability change is 9.59%.
Regarding `CCCCCC(O)c1cccc(OCc2ccc3ccccc3n2)c1` (stereo not given), the AC50 in assay [1] (measured here: GFP channel) was 31.6 µM [falling, single point]; in assay [1] (measured here: RFP channel), 31.6 µM [falling, single point]; in assay [2] (setting [9]) it was 7.08 µM [falling, full curve, poor fit]; in assay [2] (setting [10]), 7.94 µM [falling, full curve, poor fit]; in assay [3] (setting [12]), 75.7 µM [falling, partial curve, poor fit]; in assay [3] (setting [13]), 75.7 µM [falling, partial curve, poor fit]. The max response in assay [2] (setting [8]) is -25.1%; in assay [2] (setting [11]) it was -30.9%. The viability change in assay [4] came to 0.811%.
For `Cc1cn[nH]c1`, the concentration at half-maximal activity (AC50) is 35.5 µM [falling, single point] in assay [1] (measured here: GFP channel); 35.5 µM [falling, single point] in assay [1] (measured here: RFP channel); 44.7 µM [falling, single point] in assay [2] (setting [10]); 0.372 µM [falling, full curve] in assay [7] (TFE3-RCC viability, measured here: UOK124 cell viability); 0.0935 µM [falling, full curve] in assay [7] (TFE3-RCC viability, measured here: UOK145 cell viability). In addition, the max response in assay [2] (setting [8]) is -42.7%; in assay [2] (setting [11]), -39.6%. Further, the z-score was 0.137 in assay [7] (TFE3-RCC UOK109 viability, measured here: UOK109 Z-AUC); 0.354 in assay [7] (TFE3-RCC viability, measured here: UOK124 Z-AUC); -0.17 in assay [7] (TFE3-RCC viability, measured here: UOK145 Z-AUC).
For the compound `CN=c1nc(-c2ccccc2)n(-c2ccccc2)s1`, the AC50 was 25.1 µM [falling, single point] in assay [1] (measured here: GFP channel); 22.4 µM [falling, partial curve] in assay [1] (measured here: RFP channel); 39.8 µM [falling, partial curve, poor fit] in assay [2] (setting [9]); 39.8 µM [falling, partial curve, poor fit] in assay [2] (setting [10]); 75.7 µM [falling, partial curve, poor fit] in assay [3] (setting [12]); 75.7 µM [falling, single point] in assay [3] (setting [13]). Further, the max response in assay [2] (setting [8]) was -84.6%; in assay [2] (setting [11]) it was -84.7%. The viability change in assay [4] is -5%.
Turning to `N#CC(Cc1ccc(O)c(O)c1)C(=O)N1CCc2ccccc21` (stereo not given), the half-maximal activity concentration (AC50) in assay [1] (measured here: GFP channel) is 3.55 µM [falling, partial curve]; in assay [1] (measured here: RFP channel), 3.55 µM [falling, partial curve]; in assay [2] (setting [9]) it was 12.6 µM [falling, partial curve, poor fit]; in assay [2] (setting [10]) it was 15.8 µM [falling, partial curve]; in assay [3] (setting [13]), 26.9 µM [falling, full curve]. For the same compound, the max response is -72.6% in assay [2] (setting [8]) and -100% in assay [2] (setting [11]).

Broadly, the AC50 is the concentration giving half of the maximal activity seen.
